Where a name gives a salt, the structure may show the parent alone. The list shows a part of the results. The calls rarely recur for the same compound in another form.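 In K562 cells expressing nanoluciferase-fused kinases, luminescence was recorded at 4 h intervals between 2 and 18 h, normalized as percent of control with DMSO at 100% and a positive control at 0%. A significant (2 sigma) signal drop marks a time point as decreased. The authors' rule for a hit is not shown and takes in more than the number of time points.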
molecular target: YES1 (UniProt P07947); assay: kinase-Nluc reporter destabilization hit call (1 = scored as downregulated) (binary); higher = compound decreases kinase abundance; settings: 10 µM; K562; 2-18 h

Protein sequences, listed by entry. Tags and fused reporters are not part of them.
UniProt P07947, whole entry, looked up: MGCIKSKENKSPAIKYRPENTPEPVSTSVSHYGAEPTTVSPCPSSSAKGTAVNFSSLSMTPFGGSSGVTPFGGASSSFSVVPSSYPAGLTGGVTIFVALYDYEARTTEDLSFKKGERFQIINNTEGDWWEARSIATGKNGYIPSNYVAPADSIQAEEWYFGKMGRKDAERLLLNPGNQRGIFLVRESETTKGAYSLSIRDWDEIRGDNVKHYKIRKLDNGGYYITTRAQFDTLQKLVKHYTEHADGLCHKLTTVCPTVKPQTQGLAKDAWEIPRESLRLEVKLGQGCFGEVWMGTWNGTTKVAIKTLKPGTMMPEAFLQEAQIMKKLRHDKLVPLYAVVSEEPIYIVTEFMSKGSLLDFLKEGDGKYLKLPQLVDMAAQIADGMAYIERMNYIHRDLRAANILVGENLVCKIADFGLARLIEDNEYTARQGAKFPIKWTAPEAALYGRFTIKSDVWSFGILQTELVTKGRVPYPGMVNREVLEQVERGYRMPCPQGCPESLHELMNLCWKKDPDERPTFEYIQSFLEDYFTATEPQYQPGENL

kinase-Nluc reporter destabilization hit call, inactive:
Cc1cccc(/C=N/Nc2cc(N3CCOCC3)nc(OCCc3ccccn3)n2)c1 [Apilimod (mesylate)] 0
O=C(O)c1ccc2c(c1)nc(Nc1cccc(Cl)c1)c1ccncc12 [Silmitasertib (sodium salt)] 0
C[C@H](CCC(=O)NCCS(=O)(=O)O)[C@H]1CC[C@H]2[C@@H]3[C@@H](O)C[C@@H]4C[C@H](O)CC[C@]4(C)[C@H]3CC[C@]12C [Tauroursodeoxycholate (dihydrate)] 0
COc1cc2c(cc1OC)-c1c(C)c3ccc(OC)c(OC)c3c[n+]1CC2 [Dehydrocorydaline (chloride)] 0
Clc1ccc(C2(c3ccc(-c4cn[nH]c4)cc3)CCNCC2)cc1 0
CCCC(=O)Nc1ncnc2c1ncn2[C@@H]1O[C@@H]2COP(=O)(O)O[C@H]2[C@H]1OC(=O)CCC [Bucladesine (calcium)] 0
CCS(=O)(=O)N1CCN(c2ccc(Nc3ncc(C(N)=O)c(NC4CC4)n3)cc2)CC1 [Cerdulatinib] 0
CCS(=O)(=O)N1CC(CC#N)(n2cc(-c3ncnc4[nH]ccc34)cn2)C1 [Baricitinib (phosphate)] 0
FC(F)(F)c1ccc(CNc2ccc(Cc3c[nH]c4ncc(Cl)cc34)cn2)cn1 [Pexidartinib (hydrochloride)] 0
O=C(Nc1cnn2ccc(N3CCC[C@@H]3c3cc(F)ccc3F)nc12)N1CC[C@H](O)C1 [Larotrectinib sulfate] 0
C[C@@H](N)c1ccc(C(=O)Nc2ccnc3[nH]ccc23)cc1 0
C[S+]([O-])c1ccc(-c2nc(-c3ccc(F)cc3)c(-c3ccncc3)[nH]2)cc1 (stereo unspecified) 0
CS(=O)(=O)N1CCN(Cc2cc3nc(-c4cccc5[nH]ncc45)nc(N4CCOCC4)c3s2)CC1 [Pictilisib (dimethanesulfonate)] 0

molecular target: ZAK (UniProt Q9NYL2); assay: as above; settings: 2.5 µM; K562; 2-18 h

kinase-Nluc reporter destabilization hit call, inactive:
C=CC(=O)Nc1cc(Nc2nccc(-c3cn(C)c4ccccc34)n2)c(OC)cc1N(C)CCN(C)C [Osimertinib mesylate] 0
Cc1cccc(-c2[nH]c(CNc3ccccc3F)nc2-c2ccc3ncnn3c2)n1 [Vactosertib (Hydrochloride)] 0
CC(C)Oc1ccc(-c2nn([C@@H](C)c3oc4ccc(F)cc4c(=O)c3-c3cccc(F)c3)c3ncnc(N)c23)cc1F [Umbralisib (hydrochloride)] 0
COc1ccc(S(=O)(=O)Nc2ccccc2CN(C)C/C=C/c2ccc(Cl)cc2)cc1 [KN-92 (phosphate)] 0
CN(C)C(=O)c1cc2cnc(Nc3ccc(N4CCNCC4)cn3)nc2n1C1CCCC1 [Ribociclib succinate hydrate] 0
C=CC(=O)Nc1cc2c(Nc3ccc(F)c(Cl)c3)ncnc2cc1C#CC(C)(C)N1CCN(C)CC1 0
COc1cc2c(Oc3ccc4[nH]c(C)cc4c3F)ncnc2cc1OCCCN1CCCC1 [Cediranib] 0
Cc1cc(Nc2ncc(Cl)c(Nc3ccccc3S(=O)(=O)C(C)C)n2)c(OC(C)C)cc1C1CCNCC1 [Ceritinib dihydrochloride] 0
Nc1ncnc2c1c(-c1ccc(Oc3ccccc3)cc1)nn2[C@@H]1CCCNC1 0
CNC(=O)c1cc(Oc2ccc(NC(=O)Nc3ccc(Cl)c(C(F)(F)F)c3)c(F)c2)ccn1 [Regorafenib] 0

3 compounds from above, ordered by molar mass, ascending.
kinase-Nluc reporter destabilization hit call, inactive:
Nc1ncnc2c1c(-c1ccc(Oc3ccccc3)cc1)nn2[C@@H]1CCCNC1 0
CNC(=O)c1cc(Oc2ccc(NC(=O)Nc3ccc(Cl)c(C(F)(F)F)c3)c(F)c2)ccn1 [Regorafenib] 0
C=CC(=O)Nc1cc(Nc2nccc(-c3cn(C)c4ccccc34)n2)c(OC)cc1N(C)CCN(C)C [Osimertinib mesylate] 0

same assay, conditions: 10 µM; K562; 2-18 h

kinase-Nluc reporter destabilization hit call, inactive:
COc1ncc(F)cc1CNc1ccc(Cc2c[nH]c3ncc(C)cc23)c(F)n1 [PLX5622 (hemifumarate)] 0
C#Cc1cccc(Nc2ncnc3cc(OCCOC)c(OCCOC)cc23)c1 [Erlotinib] 0
Oc1cccc(-c2nc(N3CCOCC3)c3oc4ncccc4c3n2)c1 0
C#Cc1cccc(Nc2ncnc3cc(OCCOC)c(OCCO)cc23)c1 [Desmethyl Erlotinib (hydrochloride)] 0
C#Cc1cccc(Nc2ncnc3cc4c(cc23)OCCOCCOCCO4)c1 [Icotinib] 0
C#Cc1cccc(Nc2ncnc3cc4c(cc23)OCCOCCOCCO4)c1 [Icotinib (Hydrochloride)] 0
O=C(c1ccc(F)c(F)c1Nc1ccc(I)cc1F)N1CC(O)([C@@H]2CCCCN2)C1 [Cobimetinib] 0
COc1cc2nccc(Nc3cc(OC)c(OC)c(OC)c3)c2cc1OC [GAK inhibitor 49 (hydrochloride)] 0
O=C(c1ccc(F)c(F)c1Nc1ccc(I)cc1F)N1CC(O)([C@@H]2CCCCN2)C1 [Cobimetinib (hemifumarate)] 0
C=CC(=O)Nc1cc(Nc2ncc(C(=O)OC(C)C)c(-c3cn(C)c4ccccc34)n2)c(OC)cc1N(C)CCN(C)C [Mobocertinib (succinate)] 0
CNC(=O)c1ccccc1Nc1cc(Nc2ccc(N3CCOCC3)cc2OC)ncc1C(F)(F)F [PND-1186 (hydrochloride)] 0
O=C(O)c1ccc2c(c1)nc(Nc1cccc(Cl)c1)c1ccncc12 [Silmitasertib (sodium salt)] 0
C[C@H](CCC(=O)NCCS(=O)(=O)O)[C@H]1CC[C@H]2[C@@H]3[C@@H](O)C[C@@H]4C[C@H](O)CC[C@]4(C)[C@H]3CC[C@]12C [Tauroursodeoxycholate (dihydrate)] 0
COc1cc2c(cc1OC)-c1c(C)c3ccc(OC)c(OC)c3c[n+]1CC2 [Dehydrocorydaline (chloride)] 0
Clc1ccc(C2(c3ccc(-c4cn[nH]c4)cc3)CCNCC2)cc1 0
CCCC(=O)Nc1ncnc2c1ncn2[C@@H]1O[C@@H]2COP(=O)(O)O[C@H]2[C@H]1OC(=O)CCC [Bucladesine (calcium)] 0
CCS(=O)(=O)N1CCN(c2ccc(Nc3ncc(C(N)=O)c(NC4CC4)n3)cc2)CC1 [Cerdulatinib] 0
CCS(=O)(=O)N1CC(CC#N)(n2cc(-c3ncnc4[nH]ccc34)cn2)C1 [Baricitinib (phosphate)] 0
FC(F)(F)c1ccc(CNc2ccc(Cc3c[nH]c4ncc(Cl)cc34)cn2)cn1 [Pexidartinib (hydrochloride)] 0
O=C(Nc1cnn2ccc(N3CCC[C@@H]3c3cc(F)ccc3F)nc12)N1CC[C@H](O)C1 [Larotrectinib sulfate] 0
C[C@@H](N)c1ccc(C(=O)Nc2ccnc3[nH]ccc23)cc1 0
C[S+]([O-])c1ccc(-c2nc(-c3ccc(F)cc3)c(-c3ccncc3)[nH]2)cc1 (stereo unspecified) 0
CS(=O)(=O)N1CCN(Cc2cc3nc(-c4cccc5[nH]ncc45)nc(N4CCOCC4)c3s2)CC1 [Pictilisib (dimethanesulfonate)] 0

Reference: the supplement of paper PMC12823440, “Inhibitors supercharge kinase turnover through native proteolytic circuits” (Nature, 2025)
